Measurements reported in PMC7193404.
Results are given in words; binding and its absence hold for the method and conditions named. Some results given as binding are weak or reduced against the parent protein; the word gives no strength. For some of these results: Tags and fused reporters may be left off the sequences shown.

Amino acid sequences for entries named in this document (tags omitted). Residues count along the entry.
UniProt P11362, residues 22-376: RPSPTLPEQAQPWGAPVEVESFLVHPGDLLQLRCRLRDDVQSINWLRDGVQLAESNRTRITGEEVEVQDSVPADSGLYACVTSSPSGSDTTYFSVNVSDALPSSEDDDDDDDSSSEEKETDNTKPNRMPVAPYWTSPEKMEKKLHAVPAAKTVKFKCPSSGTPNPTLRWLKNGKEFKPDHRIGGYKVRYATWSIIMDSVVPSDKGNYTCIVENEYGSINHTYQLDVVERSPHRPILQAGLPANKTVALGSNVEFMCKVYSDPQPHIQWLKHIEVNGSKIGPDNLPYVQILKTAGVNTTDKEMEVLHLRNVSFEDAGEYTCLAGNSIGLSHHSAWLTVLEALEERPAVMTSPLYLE
UniProt P21802, residues 22-377: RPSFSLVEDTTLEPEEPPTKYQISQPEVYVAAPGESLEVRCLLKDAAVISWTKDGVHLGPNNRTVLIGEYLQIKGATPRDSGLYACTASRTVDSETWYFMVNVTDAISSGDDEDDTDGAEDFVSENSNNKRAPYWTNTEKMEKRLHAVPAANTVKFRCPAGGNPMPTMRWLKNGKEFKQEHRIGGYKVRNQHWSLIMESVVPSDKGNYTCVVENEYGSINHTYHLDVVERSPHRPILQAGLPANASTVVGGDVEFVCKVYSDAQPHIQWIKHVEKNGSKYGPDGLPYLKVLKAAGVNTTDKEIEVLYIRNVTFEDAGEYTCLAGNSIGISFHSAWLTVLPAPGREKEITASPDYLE
UniProt P22607, residues 23-375: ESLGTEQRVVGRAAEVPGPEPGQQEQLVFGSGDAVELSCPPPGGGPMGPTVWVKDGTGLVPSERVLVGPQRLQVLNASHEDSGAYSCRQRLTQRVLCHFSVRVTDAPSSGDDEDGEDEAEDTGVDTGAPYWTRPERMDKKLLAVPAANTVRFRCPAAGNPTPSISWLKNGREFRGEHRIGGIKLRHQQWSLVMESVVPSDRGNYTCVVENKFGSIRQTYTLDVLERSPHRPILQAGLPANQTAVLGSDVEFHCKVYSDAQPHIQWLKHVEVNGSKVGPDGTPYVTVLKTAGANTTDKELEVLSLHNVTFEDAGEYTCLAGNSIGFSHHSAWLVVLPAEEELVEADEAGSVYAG

Assays:
Test in all cases: SPR; Biacore 3000, 25 °C; FGFR-Fc amine-coupled at high density (about 9000 RU) on CM5; FHF1 3 uM injected at 30 ul/min; PBS, 0.05% Tween 20, 0.02% NaN3, pH 7.4; both purified
[1] = molecular target: extracellular region of FGFR1 fused to the Fc fragment (UniProt P11362)
[2] = molecular target: extracellular region of FGFR2 fused to the Fc fragment (UniProt P21802)
[3] = molecular target: extracellular region of FGFR3 fused to the Fc fragment (UniProt P22607)
[4] = molecular target: T1, extracellular region of FGFR4 fused to the Fc fragment (UniProt P22455)
T1 sequence: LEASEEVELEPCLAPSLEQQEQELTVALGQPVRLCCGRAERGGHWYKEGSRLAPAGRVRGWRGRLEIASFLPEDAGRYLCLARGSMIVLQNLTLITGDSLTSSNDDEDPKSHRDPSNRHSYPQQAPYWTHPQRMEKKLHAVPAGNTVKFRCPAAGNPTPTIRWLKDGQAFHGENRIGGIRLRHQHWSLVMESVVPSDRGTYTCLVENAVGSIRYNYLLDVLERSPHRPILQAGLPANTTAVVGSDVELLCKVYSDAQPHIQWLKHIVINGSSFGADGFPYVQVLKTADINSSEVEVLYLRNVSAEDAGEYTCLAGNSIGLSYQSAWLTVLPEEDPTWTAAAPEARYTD

- binding [1]: binds
- binding [2]: binds
- binding [3]: binds
- binding [4]: binds
B1: fibroblast growth factor homologous factor 1, short isoform (FHF1b) (ligand, UniProt P61328-2 1-181)
chain: MESKEPQLKGIVTRLFSQQGYFLQMHPDGTIDGTKDENSDYTLFNLIPVGLRVVAIQGVKASLYVAMNGEGYLYSSDVFTPECKFKESVFENYYVIYSSTLYRQQESGRAWFLGLNKEGQIMKGNRVKKTKPSSHFVPKPIEVCMYREPSLHEIGEKQGRSRKSSGTPTMNGGKVVNQDST
